Among the data in article PMC4749218 are binding values, retold here.

The experiment addresses T1, E3 ubiquitin-protein ligase IE2 (Autographa californica nuclear polyhedrosis virus (AcMNPV)) (UniProt P24647).
T1 sequence: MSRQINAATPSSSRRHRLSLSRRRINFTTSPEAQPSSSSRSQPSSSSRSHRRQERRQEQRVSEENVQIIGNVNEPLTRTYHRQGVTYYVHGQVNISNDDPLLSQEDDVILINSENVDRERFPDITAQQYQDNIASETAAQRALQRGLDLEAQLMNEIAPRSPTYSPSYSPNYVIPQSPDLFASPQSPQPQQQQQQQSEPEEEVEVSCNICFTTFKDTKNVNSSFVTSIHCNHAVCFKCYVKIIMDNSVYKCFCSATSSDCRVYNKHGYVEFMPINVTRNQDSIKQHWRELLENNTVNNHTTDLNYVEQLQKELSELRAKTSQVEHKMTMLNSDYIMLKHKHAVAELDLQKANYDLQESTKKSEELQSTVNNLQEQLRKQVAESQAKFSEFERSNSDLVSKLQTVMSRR
Kind of experiment: co-IP; nuclear extracts of vAcIE2-transduced Vero E6 cells incubated with anti-His antibody overnight at 4°C, protein G magnetic beads, washed in DPBS with 0.1% Tween 20, eluted with Laemmli buffer; Western blot; vAcE-transduced extract as control. (In general: Immunoblotting shows a protein as a band on a membrane.)

No constants are given. Whether binding was seen depends on the method and setting. Binding seen in cells or lysates may run through a third protein. Binding calls can cover weak binding; strength is not graded here.

As for HSP70, the binding result is “binds”.
HSP90: the binding result was “no binding”.
